The experiment has as its system Salmonella enterica serovar Typhimurium SL1344. Briefly: bacterial growth OD600 after 18 h with compound and polymyxin B; higher = more bacterial growth (less inhibition). The settings on record: 50 µM, Mueller-Hinton broth.

The source of these data is the supplement of paper PMC12889115.

The other results are listed elsewhere or left out. These are raw signals, not scaled to a control.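 First-pass screen: polymyxin B was added at a level that permeabilizes the Salmonella outer membrane while sparing the inner membrane. DMSO wells, with and without polymyxin B, defined maximum growth. Because plates differed from one another, each plate's data were ranked separately and the compounds with the lowest OD600 were carried forward as hits.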

On to `OCCOc1cccc(CN2CCOc3ccc(C(O)Cc4ccccc4)cc3C2)c1` (centres undefined), for which the “bacterial growth OD600” value (polymyxin B 0.75 µg/mL) came to 0.782.
`O=C(Cn1cnnn1)N1CCCC(N2CCN(c3cccc(C(F)(F)F)c3)CC2)C1` (centres undefined): the “bacterial growth OD600” value (polymyxin B 1 µg/mL) was found to be 0.893.
As for `OCC1(Cc2ccccc2Cl)CCN(Cc2cccn2-c2ccccn2)CC1`, the “bacterial growth OD600” value (polymyxin B 1 µg/mL) came to 0.922.
On to `CN(Cc1ccccc1)Cc1cc(C(=O)NCc2ncc[nH]2)no1`, for which the “bacterial growth OD600” value (polymyxin B 1 µg/mL) is 1.05.
Turning to `CCC1CN(Cc2cccc(C)n2)Cc2cc(OC)ccc2O1` (centres undefined), the “bacterial growth OD600” value (polymyxin B 0.75 µg/mL) was determined as 0.841.
Turning to `CCOC(=O)C1(Cc2ccccc2C)CCCN(C(=O)c2ccccn2)C1` (centres undefined), the “bacterial growth OD600” value (polymyxin B 1 µg/mL) amounted to 0.776.
On the same count and under the same terms, in the case of `COc1ccccc1CCC(=O)N1CCCC(C(=O)c2cccc3ccccc23)C1` (centres undefined) it was 0.52.
In the case of `COCc1ccc(C(=O)Nc2ccc(-c3nc(CNC(=O)Cn4nc(C)cc4C)c(C)o3)cc2)o1`, the “bacterial growth OD600” value (polymyxin B 0.75 µg/mL) is 0.818.
As for `CN(C(=O)CC(c1ccc(O)cc1)c1cccc(O)c1)C1CCOCC1` (centres undefined), the “bacterial growth OD600” value (polymyxin B 1 µg/mL) is 0.911.
